Assay results: US20140178902A1, “METHOD FOR DETECTING INFECTIONS” (priority 2011, published 2014)

Assay: FusC ELISA of urine and sera, animal model of invasive pulmonary aspergillosis
Format: in vivo, Guinea pig
Details: for earliest detection in urine post-infection: some samples
[1] = immunocompromised guinea pigs inoculated with A. fumigatus

SMILES: C/C1=C/C(=O)N(O)CCCC(N)C(=O)OCC/C(C)=C\C(=O)N(O)CCCC(N)C(=O)OCC/C(C)=C\C(=O)N(O)CCCC(N)C(=O)OCC1 (stereo not shown) [FusC, fusarinine C]
- earliest detection in urine post-infection (EF2 ELISA): 5 days
- earliest detection in urine post-infection (EF3 ELISA): 5 days
- FusC detection in sera [1]: detectable
- FusC detection in urine [1]: detectable
